Numbering of substitutions follows the chain as printed. For some of these results: A weaker result is weaker than the reference pair of the same experiment. For some of these results: Where a protein sequence is shown, tags need not be part of it. For some of these results: Construct, isoform or probe ends are uncertain for at least one entry. For some of these results: At least one verdict was read from the data and is not stated in words by the source.
How the values were obtained:
[1] = target: T1, MORC2 GHKL (Homo sapiens) (UniProt Q9Y6X9); test: EMSA; details: lacks CW and CC2; EMSA: 20 mM Tris pH 7.4, 75 mM NaCl, 5% glycerol, 0.005% NP-40, 0.5 mM MgCl2, RT 30 min; recombinant protein; residues 1-265; protein details: C-terminal 3C site-twin StrepII; label: 5' 6FAM, IRDye680 or IRDye800 on XOm1
T1 sequence (looked up): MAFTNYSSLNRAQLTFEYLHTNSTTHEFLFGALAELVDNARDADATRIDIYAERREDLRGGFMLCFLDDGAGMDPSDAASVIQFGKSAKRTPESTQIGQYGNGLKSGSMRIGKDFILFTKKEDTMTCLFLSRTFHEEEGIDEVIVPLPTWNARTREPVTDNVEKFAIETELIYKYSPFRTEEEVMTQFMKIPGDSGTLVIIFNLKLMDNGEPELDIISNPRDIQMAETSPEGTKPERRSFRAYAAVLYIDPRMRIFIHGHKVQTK

[2] = target: T2, MORC2 604-1032 (Homo sapiens) (UniProt Q9Y6X9); test: EMSA; details: some binding rescued; EMSA: 20 mM Tris pH 7.4, 75 mM NaCl, 5% glycerol, 0.005% NP-40, 0.5 mM MgCl2, RT 30 min; recombinant protein; residues 604-1032; protein details: C-terminal 3C site-twin StrepII; label: 5' 6FAM, IRDye680 or IRDye800 on XOm1
T2 sequence (looked up): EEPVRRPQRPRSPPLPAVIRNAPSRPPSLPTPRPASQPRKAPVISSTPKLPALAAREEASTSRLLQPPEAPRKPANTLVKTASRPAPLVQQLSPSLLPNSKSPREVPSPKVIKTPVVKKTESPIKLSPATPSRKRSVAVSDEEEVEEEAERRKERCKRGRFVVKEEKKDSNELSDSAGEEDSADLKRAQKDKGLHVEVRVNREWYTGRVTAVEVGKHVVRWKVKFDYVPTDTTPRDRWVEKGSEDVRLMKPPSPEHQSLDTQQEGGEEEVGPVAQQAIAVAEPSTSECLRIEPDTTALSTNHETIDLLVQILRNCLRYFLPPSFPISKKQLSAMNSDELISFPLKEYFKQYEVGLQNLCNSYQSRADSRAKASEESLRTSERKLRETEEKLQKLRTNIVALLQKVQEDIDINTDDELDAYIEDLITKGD

[3] = target: MORC2 PAK1-phosphorylated (Homo sapiens) (UniProt Q9Y6X9); test: SPR; details: PAK1 treated; SPR: 10 mM HEPES pH 7.4, 300 mM NaCl, 3 mM EDTA, 0.05% Tween-20, 20 C; recombinant protein; residues 1-1032; protein details: C-terminal 3C site-twin StrepII; label: 5'-biotin on strand 1
[4] = target: T3, MORC2 S87A (Homo sapiens) (UniProt Q9Y6X9); test: SPR; details: similar affinity to WT; SPR: 10 mM HEPES pH 7.4, 300 mM NaCl, 3 mM EDTA, 0.05% Tween-20, 20 C; recombinant protein; residues 1-1032; protein details: C-terminal 3C site-twin StrepII; label: 5'-biotin on strand 1
T3 sequence (looked up): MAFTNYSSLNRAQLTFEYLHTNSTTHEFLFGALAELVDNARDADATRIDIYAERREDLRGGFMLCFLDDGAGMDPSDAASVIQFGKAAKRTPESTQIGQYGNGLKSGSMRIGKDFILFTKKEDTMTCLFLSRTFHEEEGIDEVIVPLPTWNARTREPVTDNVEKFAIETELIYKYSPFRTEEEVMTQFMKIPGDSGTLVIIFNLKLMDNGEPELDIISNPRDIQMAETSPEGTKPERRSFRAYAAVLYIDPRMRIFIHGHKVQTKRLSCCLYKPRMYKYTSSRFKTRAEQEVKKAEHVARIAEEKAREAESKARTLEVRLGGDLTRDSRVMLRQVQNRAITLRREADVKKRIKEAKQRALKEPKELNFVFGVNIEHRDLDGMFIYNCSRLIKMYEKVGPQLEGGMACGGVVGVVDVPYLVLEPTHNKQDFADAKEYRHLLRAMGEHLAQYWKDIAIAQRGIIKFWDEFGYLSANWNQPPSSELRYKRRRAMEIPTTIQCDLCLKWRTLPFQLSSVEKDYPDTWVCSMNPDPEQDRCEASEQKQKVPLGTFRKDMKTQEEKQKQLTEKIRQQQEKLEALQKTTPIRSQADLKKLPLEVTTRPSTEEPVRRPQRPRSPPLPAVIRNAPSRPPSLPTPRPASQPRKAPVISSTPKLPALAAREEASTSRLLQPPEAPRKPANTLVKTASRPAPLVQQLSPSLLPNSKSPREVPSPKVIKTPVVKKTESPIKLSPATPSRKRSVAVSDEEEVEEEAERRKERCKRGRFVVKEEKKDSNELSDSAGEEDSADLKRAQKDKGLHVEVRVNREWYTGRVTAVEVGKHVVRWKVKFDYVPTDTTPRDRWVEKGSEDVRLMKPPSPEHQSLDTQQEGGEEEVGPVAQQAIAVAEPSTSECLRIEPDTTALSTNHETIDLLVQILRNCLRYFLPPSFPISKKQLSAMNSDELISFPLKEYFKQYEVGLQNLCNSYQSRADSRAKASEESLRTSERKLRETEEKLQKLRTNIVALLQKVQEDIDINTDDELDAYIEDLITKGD

[5] = target: MORC2 PD (phosphodead) S725A,S730A,S739A,S743A,S777A,S779A (Homo sapiens) (UniProt Q9Y6X9); test: SPR; details: SPR: 10 mM HEPES pH 7.4, 300 mM NaCl, 3 mM EDTA, 0.05% Tween-20, 20 C; recombinant protein; residues 1-1032; protein details: C-terminal 3C site-twin StrepII; label: 5'-biotin on strand 1
[6] = target: MORC2 pre-treated (Homo sapiens) (UniProt Q9Y6X9); test: SPR; details: reaction buffer pre-treated; SPR: 10 mM HEPES pH 7.4, 300 mM NaCl, 3 mM EDTA, 0.05% Tween-20, 20 C; recombinant protein; residues 1-1032; protein details: C-terminal 3C site-twin StrepII; label: 5'-biotin on strand 1
MORC2 WT (Homo sapiens) = target: T4, MORC2 WT (Homo sapiens) (UniProt Q9Y6X9); test: EMSA; details: EMSA: 20 mM Tris pH 7.4, 75 mM NaCl, 5% glycerol, 0.005% NP-40, 0.5 mM MgCl2, RT 30 min, recombinant protein, residues 1-1032, protein details: C-terminal 3C site-twin StrepII
T4 sequence (looked up): T3 sequence (looked up) with A87S

ACGCTGCCGAATTCTACCAGTGCCTTGCTAGGACATCTTTGCCCACCTGCAGGTTCACCC (double strand) [60 bp dsDNA (XOm1/XOm1.comp)]
binding result [1]: binds more weakly | binding result [2]: binds more weakly

ACGCTGCCGAATTCTACCAGTGCCTTGCTAGGACATCTTTGCCCACCTGCAGGTTCACCC (double strand) [60 bp dsDNA (biotin, SPR)]
Kd [3]: 493 nM | binding result [4]: binds | Kd [5]: 5.35 nM | Kd [6]: 160 nM

ATCGATGTCTCTAGACAGCTGCTCAGGATTGATC (double strand) [34 bp dsDNA]
binding result (MORC2 WT (Homo sapiens); label: IRDye700): binds

ATCGATGTCTCTAGACAGCTGCTCAGGATTGATCTGTAA (double strand) [39 bp dsDNA]
binding result (MORC2 WT (Homo sapiens); label: IRDye700): binds

ATCGATGTCTCTAGACAGCTGCTCAGGATTGATCTGTAATGGCC (double strand) [44 bp dsDNA]
binding result (MORC2 WT (Homo sapiens); label: IRDye700): binds

CGGTCGTTTAGCATACTAATCTGAGAGTCCGACGGTCGTCAGTCAGTCATGACTTCACAGAGGAAGGGCCAGTATCCTGTCCAAACTTGA (double strand) [90 bp dsDNA]
binding result (MORC2 WT (Homo sapiens); label: IRDye800 (competition), IRDye700 (length series)): binds

Reference: publication PMC12216690, “MORC2 is a phosphorylation-dependent DNA compaction machine” (Nature Communications, 2024)
